According to the supplement of paper PMC5407854, “Inhibitor of ppGalNAc-T3-mediated O-glycosylation blocks cancer cell invasiveness and lowers FGF23 levels” (eLife, 2017):
“And” between values parts separate entries of the source, which are not always exact repeats. Identical values can stand only once. Whole data set: some 1,700 compounds, median “T2 sensor activation Q score (MG/GFP ratio z-score vs DMSO controls)” near 0.3, cut for the highest 2% near 1.9. Some of the results follow.

These compounds were tested on ppGalNAc-T2 sensor (assay: T2 sensor activation Q score (MG/GFP ratio z-score vs DMSO controls) (SD units); higher = more sensor activation (inhibition of ppGalNAc-T2 glycosylation)). Conditions: HEK293 sensor cells; 10 µM; 6 h.
Procedure: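 Cells were treated with compound at 10 uM for 6 h, then MG/GFP ratio was read by flow cytometry (10,000 cells per well, duplicate wells). Q = (R - R_neg)/SD_neg relative to DMSO vehicle controls; the signal rises when the glycosyltransferase is inhibited.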

SMILES | T2 sensor activation Q score
CCOC(=O)/C(C#N)=C1\SS/C(=C(/C#N)C(=O)OCC)S1 | 0.9
Nc1ccc(NC(=O)Nc2ccc(N)cc2)cc1 | 0.2
Nc1nc(N)c2c(ccc3nccc32)[nH]1 | 1.3
OC(COc1cccc2ccccc12)CN1CCN(c2ccc(Cl)cc2)CC1 (configuration not stated) | 1.05 and 0.75
CCOC(=O)/C(C#N)=C/c1cccc(C)c1 | -0.35
O=C(Cn1nnc(N2CCCCC2)n1)N/N=C/c1ccccc1O | 0.15
Cn1c(=O)c2c(nc(N3CCCCC3)n2C)n(C)c1=O | -0.7
O=S1(=O)CCC(N(N=Cc2ccco2)c2ccccc2)C1 (configuration not stated) | -0.2
Cn1nc(N)c2ncc(C(Cl)(Cl)Cl)nc21 | -0.55
O=C(CCCCCCC(=O)Nc1ccccc1)NO | -1.9
CC(C)(C)CC(C)(C)n1nnnc1N | 1.15
Cc1c2cc[n+](CCN3CCCCC3)cc2c(C)c2c1[nH]c1ccc(O)cc12 | -0.55
Oc1cc(-n2cccn2)c(O)cc1-n1cccn1 | 0.9
O=[N+]([O-])/C=C/c1cc2ccccc2[nH]1 | -1
COc1ccc2nccc(/C=C/c3ccnc4ccc(OC)cc34)c2c1 | 1
O=C(NC(=S)Nc1cccc(O)c1)c1ccco1 | -0.1
CCCCOP(=O)(OCCCC)C1(C)CC(=O)CC(C)(C)C1 (configuration not stated) | -0.65
c1cc(-n2nnc3cnccc32)ccn1 | -0.75
COc1ccc(NC(=O)CC(C)=O)c(OC)c1 | 0.8

SMILES | T2 sensor activation Q score
O=C(Nc1ccc(C2=NCCN2)cc1)c1ccc(Cl)c(C(=O)Nc2ccc(C3=NCCN3)cc2)c1 | 0.45
Cc1c(COC(=O)NC(C)C)c(COC(=O)NC(C)C)c2n1CS(=O)(=O)C2 | -0.4
CC(=O)Nc1c(C)cc(OCC(=O)O)cc1C | -0.05
O=c1cc2c(=O)oc3cc(O)c(O)oc3c2c(O)c1O | 1.85
NC(=S)Nc1cccc(Cl)c1 | -0.35
C1=CC2(C=C1)OC21CCC2(C=CC3(C2)OC3C2CCCCC2)CC1 (configuration not stated) | 0.75
O=NN(CCCl)C(=O)NCCCl | -1.55
COc1ccc(/C=C2/CCOC2=O)cc1 | -1.7
O=C(O)C(c1ccccc1)C1(O)CCCCC1 (configuration not stated) | 0.9
Cc1[nH]c(=O)n(C(C)C)c(=O)c1Br | 0.6
O=c1[nH]c(C(F)(F)C(F)(F)C(F)(F)F)no1 | -0.3
CCCCN1CCNC1=S | -0.45
CC(C)(C)NC(=O)c1ccc(C(=O)NC(C)(C)C)cc1 | -0.95
Nc1nc(N)nc(C2C=CCCC2)n1 (configuration not stated) | 1.8
COC(=O)c1cncc(C)c1 | -1
CC1=C(O)C(=O)C(c2c(C)cc(C)c(Br)c2C)=C(O)C1=O | 1.25
O=S(=O)(O)c1ccc2c(c1)C(C(Cl)(Cl)Cl)OC(C(Cl)(Cl)Cl)O2 (configuration not stated) | 0.1
NC(=O)c1ccc(Oc2ccc(C(N)=O)cc2)cc1 | 1.85
